From the supplement of paper PMC10849652
The other results are listed elsewhere or left out.

Chains of the proteins cited; added tags and fusions are not shown. Lines headed by an entry give the natural chain unless they say otherwise; changes in a name come on top.
UniProt Q15390: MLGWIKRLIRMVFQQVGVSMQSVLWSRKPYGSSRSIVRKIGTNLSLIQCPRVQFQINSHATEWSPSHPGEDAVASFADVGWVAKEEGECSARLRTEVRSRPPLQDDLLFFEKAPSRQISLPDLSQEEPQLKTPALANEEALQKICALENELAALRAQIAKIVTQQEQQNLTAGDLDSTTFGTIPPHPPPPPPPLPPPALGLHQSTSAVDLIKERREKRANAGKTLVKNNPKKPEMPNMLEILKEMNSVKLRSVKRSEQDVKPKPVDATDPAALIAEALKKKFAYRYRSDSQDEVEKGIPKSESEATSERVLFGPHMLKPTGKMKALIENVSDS
UniProt O43347: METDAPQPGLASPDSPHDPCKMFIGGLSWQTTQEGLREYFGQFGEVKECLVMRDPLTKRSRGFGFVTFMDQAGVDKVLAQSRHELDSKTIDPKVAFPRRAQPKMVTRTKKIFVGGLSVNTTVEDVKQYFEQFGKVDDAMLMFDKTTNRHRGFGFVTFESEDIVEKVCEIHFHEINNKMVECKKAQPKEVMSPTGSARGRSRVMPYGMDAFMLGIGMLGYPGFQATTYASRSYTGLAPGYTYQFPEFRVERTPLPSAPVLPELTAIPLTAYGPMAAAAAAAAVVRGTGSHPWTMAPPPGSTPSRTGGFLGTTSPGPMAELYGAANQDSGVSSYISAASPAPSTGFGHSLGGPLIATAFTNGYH
UniProt Q15746, whole entry, looked up: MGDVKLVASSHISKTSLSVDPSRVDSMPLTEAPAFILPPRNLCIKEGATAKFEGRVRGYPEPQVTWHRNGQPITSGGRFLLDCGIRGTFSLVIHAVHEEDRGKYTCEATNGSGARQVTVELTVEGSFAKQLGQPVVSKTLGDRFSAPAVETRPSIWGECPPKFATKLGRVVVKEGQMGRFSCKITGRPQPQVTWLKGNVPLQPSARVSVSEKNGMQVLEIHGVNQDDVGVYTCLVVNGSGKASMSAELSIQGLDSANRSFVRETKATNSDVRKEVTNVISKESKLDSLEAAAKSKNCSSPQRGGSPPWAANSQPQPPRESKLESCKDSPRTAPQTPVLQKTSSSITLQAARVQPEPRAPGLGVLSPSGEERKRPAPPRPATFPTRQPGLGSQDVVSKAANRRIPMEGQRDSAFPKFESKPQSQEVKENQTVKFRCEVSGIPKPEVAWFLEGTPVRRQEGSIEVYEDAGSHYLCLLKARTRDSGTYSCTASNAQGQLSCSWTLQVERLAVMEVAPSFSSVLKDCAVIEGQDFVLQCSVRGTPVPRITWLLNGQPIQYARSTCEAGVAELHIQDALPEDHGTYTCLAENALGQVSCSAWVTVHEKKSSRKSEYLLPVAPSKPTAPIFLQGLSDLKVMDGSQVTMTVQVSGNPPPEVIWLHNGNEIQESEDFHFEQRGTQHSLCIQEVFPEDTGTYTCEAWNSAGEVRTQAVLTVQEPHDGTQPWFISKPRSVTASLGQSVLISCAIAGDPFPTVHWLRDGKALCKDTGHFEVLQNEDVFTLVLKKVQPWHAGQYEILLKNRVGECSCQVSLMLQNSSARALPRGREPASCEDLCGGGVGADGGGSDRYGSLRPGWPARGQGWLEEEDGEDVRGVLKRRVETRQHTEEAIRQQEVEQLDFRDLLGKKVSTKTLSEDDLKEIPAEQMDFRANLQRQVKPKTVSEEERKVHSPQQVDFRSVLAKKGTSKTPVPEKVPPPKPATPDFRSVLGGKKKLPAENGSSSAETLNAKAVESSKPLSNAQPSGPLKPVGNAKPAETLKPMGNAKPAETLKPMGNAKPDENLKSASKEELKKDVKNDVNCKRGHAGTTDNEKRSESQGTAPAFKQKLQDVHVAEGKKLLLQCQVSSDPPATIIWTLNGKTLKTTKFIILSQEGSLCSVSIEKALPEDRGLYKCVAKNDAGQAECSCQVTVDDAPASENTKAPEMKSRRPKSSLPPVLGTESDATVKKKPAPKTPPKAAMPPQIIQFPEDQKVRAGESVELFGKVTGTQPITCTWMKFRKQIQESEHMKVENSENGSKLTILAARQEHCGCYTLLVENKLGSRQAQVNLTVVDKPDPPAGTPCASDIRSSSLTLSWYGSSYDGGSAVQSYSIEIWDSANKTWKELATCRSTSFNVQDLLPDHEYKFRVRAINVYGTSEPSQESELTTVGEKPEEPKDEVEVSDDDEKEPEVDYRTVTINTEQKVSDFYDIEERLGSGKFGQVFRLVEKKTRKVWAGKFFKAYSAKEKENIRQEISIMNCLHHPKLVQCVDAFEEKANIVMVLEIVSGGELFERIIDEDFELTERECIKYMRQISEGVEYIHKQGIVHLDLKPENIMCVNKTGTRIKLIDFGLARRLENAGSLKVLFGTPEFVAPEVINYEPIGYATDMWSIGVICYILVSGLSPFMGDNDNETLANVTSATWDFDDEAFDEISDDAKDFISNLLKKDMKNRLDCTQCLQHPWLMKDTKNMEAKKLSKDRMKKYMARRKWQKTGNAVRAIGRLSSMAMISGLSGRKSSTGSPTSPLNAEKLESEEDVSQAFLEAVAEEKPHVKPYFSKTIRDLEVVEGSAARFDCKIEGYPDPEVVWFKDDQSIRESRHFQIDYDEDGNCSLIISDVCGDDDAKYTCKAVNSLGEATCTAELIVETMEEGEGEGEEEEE
UniProt Q96QG7: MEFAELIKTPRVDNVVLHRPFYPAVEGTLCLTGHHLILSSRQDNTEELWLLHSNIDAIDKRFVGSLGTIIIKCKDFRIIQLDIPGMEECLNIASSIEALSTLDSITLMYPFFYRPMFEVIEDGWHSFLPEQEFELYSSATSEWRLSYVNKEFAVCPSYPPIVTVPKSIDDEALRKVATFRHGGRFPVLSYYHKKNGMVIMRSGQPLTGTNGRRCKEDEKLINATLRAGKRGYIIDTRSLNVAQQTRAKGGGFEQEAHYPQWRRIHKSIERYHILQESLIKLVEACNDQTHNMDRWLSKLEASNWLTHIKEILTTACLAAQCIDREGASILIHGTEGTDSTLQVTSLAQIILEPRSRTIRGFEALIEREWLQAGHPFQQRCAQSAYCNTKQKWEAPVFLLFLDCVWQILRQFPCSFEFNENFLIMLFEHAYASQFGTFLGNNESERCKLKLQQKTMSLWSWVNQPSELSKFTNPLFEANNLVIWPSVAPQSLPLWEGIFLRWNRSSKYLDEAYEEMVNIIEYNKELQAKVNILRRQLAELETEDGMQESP
UniProt P11055, whole entry, looked up: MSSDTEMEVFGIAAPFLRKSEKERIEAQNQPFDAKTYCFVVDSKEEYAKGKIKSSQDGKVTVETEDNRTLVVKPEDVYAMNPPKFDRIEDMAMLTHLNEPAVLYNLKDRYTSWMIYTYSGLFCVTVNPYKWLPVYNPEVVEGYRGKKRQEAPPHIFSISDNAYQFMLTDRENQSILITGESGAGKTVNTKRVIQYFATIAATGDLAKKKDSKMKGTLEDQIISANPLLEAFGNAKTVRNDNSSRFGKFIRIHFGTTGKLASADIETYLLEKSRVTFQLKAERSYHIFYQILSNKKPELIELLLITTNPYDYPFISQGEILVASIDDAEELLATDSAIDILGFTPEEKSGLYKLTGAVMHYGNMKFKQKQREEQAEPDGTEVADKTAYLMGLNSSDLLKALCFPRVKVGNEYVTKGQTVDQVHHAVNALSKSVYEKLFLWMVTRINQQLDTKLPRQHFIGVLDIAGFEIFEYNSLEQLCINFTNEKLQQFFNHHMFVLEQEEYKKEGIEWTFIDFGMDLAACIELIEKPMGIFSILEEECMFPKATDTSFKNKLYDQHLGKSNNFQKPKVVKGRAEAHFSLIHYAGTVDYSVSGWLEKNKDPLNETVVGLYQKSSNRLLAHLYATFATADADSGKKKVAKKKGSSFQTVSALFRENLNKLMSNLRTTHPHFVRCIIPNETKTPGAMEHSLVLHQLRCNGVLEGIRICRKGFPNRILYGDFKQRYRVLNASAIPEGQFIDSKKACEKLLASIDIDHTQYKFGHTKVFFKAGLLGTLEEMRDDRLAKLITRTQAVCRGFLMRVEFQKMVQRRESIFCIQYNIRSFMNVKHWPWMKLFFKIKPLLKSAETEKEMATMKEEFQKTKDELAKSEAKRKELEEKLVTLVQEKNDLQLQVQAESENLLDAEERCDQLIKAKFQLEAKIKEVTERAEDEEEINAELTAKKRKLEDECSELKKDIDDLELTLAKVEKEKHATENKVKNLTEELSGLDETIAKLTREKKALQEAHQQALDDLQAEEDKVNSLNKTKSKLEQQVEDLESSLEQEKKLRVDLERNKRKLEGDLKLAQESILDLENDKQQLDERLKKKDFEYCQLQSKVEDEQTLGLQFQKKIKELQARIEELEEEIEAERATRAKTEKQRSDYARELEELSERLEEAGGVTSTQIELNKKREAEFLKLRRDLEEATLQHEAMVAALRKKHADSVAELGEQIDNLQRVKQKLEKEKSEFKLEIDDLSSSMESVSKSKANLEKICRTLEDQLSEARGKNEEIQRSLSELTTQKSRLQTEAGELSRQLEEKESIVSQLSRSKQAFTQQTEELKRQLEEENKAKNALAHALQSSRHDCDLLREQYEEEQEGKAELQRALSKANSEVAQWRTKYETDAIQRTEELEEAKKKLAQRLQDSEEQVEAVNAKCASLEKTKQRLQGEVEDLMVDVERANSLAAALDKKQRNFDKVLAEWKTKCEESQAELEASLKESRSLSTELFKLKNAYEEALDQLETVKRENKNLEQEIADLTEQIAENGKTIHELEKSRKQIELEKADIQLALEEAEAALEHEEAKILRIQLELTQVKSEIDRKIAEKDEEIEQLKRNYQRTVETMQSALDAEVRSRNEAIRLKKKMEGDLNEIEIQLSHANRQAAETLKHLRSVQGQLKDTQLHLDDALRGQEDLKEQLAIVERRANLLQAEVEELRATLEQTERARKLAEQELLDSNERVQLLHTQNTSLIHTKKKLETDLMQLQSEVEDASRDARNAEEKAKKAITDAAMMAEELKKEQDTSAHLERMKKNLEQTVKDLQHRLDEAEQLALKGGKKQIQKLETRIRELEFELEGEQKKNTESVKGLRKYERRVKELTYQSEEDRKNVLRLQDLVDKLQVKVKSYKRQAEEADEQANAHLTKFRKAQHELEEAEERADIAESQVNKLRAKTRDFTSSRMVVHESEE
UniProt Q96H55, whole entry, looked up: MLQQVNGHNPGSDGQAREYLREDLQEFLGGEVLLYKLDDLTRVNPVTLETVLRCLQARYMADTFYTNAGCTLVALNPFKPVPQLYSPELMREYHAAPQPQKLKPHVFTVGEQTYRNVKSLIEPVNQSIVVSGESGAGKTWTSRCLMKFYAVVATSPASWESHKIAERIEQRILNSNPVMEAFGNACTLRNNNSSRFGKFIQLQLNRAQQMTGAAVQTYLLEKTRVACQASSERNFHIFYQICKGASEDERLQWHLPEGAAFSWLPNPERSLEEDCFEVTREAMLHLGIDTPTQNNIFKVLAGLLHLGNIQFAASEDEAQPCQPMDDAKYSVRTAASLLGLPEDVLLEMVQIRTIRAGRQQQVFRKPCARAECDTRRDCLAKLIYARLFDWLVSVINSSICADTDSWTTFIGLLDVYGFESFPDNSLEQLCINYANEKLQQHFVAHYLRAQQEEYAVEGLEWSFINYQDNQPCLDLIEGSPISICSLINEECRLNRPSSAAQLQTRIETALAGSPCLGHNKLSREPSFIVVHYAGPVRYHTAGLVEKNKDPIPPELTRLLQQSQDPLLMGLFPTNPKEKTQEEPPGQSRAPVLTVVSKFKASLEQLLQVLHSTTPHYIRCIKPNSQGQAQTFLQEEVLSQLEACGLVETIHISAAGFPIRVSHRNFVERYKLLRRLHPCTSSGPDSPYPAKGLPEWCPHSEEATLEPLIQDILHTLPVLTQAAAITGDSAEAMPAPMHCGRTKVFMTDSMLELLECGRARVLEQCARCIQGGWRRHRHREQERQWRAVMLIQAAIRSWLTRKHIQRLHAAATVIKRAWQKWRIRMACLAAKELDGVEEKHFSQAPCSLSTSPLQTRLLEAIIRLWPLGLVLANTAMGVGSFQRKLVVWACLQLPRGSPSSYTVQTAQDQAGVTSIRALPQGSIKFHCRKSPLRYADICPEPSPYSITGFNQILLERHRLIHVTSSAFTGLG
UniProt Q13505: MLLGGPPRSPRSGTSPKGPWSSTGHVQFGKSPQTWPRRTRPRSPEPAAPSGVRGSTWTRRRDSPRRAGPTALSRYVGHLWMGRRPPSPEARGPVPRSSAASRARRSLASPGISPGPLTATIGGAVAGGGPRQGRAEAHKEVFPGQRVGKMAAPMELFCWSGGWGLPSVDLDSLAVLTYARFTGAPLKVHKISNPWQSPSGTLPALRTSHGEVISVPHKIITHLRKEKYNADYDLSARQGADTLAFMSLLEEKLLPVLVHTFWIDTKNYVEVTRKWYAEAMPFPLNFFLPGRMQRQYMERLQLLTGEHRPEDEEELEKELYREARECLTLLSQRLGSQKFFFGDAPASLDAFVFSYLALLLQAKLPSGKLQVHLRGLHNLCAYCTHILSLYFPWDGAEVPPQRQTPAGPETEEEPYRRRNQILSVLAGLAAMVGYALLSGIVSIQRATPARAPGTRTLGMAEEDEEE

Experiments:
Test in all cases: log2 fold change, soluble protein after heating vs DMSO (PISA); higher = thermal stabilisation; K562 cells, 10 uM, 30 min; active = over 0.2 and 3.5 SD of the protein, either way, in both replicates (recomputed)
[1] = compound: Cc1ccc(NC(=O)c2ccc(CN3CC[C@H](N(C)C)C3)c(C(F)(F)F)c2)cc1Nc1nccc(-c2cncnc2)n1 [bafetinib]
How it was run: (§1)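 For each measurement, 10 μM compound was applied for 30 min to K562 cells at 2×10^6 cells/mL. Aliquots were heated for 3 min across 48°C-58°C, pooled, and extracted in PBS with 0.5% NP-40 at 4°C; the supernatant after 21,000xg for 90 min was soluble protein. This was quantified by TMTpro 16plex LC-MS/MS with channel sums equalised, and thermal stability was reported relative to control samples from duplicates, on a log2 fold-change scale.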

[2] = compound: Cc1cccc(CC(=O)N2CCc3c2ccc(-c2cn(C)c4ncnc(N)c24)c3F)n1
How it was run: as §1

[3] = compound: Cc1cn(-c2cc(NC(=O)c3ccc(C)c(Nc4nccc(-c5cccnc5)n4)c3)cc(C(F)(F)F)c2)cn1 [nilotinib]
How it was run: as §1

[4] = compound: Cc1nc(Nc2n[nH]c3c2CN(C(=O)N[C@H](CN(C)C)c2ccccc2)C3(C)C)c2sccc2n1
How it was run: as §1

[5] = compound: Cc1nc(Nc2ncc(C(=O)Nc3c(C)cccc3Cl)s2)cc(N2CCN(CCO)CC2)n1 [dasatinib]
How it was run: as §1

[6] = compound: Cc1ncc(-c2ccnc(Nc3ccc(S(C)(=O)=O)cc3)n2)n1C(C)C
How it was run: as §1

[7] = compound: Cn1cc(-c2ccc3c(c2)CCN3C(=O)Cc2cccc(C(F)(F)F)c2)c2c(N)ncnc21
How it was run: as §1

[8] = compound: Cn1cc(-c2ccc3nnc(C(F)(F)c4ccc5ncccc5c4)n3n2)cn1
How it was run: as §1

[9] = compound: Cn1cncc1[C@@](N)(c1ccc(Cl)cc1)c1ccc2c(c1)c(-c1cccc(Cl)c1)cc(=O)n2C [tipifarnib]
How it was run: as §1

[10] = compound: FC(F)(F)c1ccc(/C=C/c2nc(COc3ccc(CCCCn4ccnn4)cc3)co2)cc1 [mubritinib]
How it was run: as §1

[11] = compound: NC(=O)Nc1cc(-c2cccc(F)c2)sc1C(=O)N[C@H]1CCCNC1
How it was run: as §1

[12] = compound: NC(=O)c1cnc(N[C@@H]2CCCC[C@@H]2N)nc1Nc1cccc(-n2nccn2)c1
How it was run: as §1

[13] = compound: NC1(c2ccc(-c3nc4ccn5c(=O)[nH]nc5c4cc3-c3ccccc3)cc2)CCC1
How it was run: as §1

[14] = compound: NCC(=O)Nc1ccc(-n2nc(C(F)(F)F)cc2-c2ccc3c(ccc4ccccc43)c2)cc1
How it was run: as §1

[15] = compound: Nc1ccccc1NC(=O)c1ccc(CNC(=O)OCc2cccnc2)cc1 [entinostat]
How it was run: as §1

[16] = compound: O=C(CCCCCCC(=O)Nc1ccccc1)NO [vorinostat]
How it was run: as §1

[17] = compound: O=C(CCCCCCNC(=O)c1cnc(N(c2ccccc2)c2ccccc2Cl)nc1)NO [citarinostat]
How it was run: as §1

[18] = compound: O=C(O)c1ccc2c(c1)nc(Nc1cccc(Cl)c1)c1ccncc12 [silmitasertib]
How it was run: as §1

[19] = compound: O=C1NC(=O)C(c2cnc3ccccn23)=C1c1cn2c3c(cc(F)cc13)CN(C(=O)N1CCCCC1)CC2
How it was run: as §1

[20] = compound: c1cc(OCCN2CCCCC2)cc(-c2n[nH]c3ccc(-c4nnc[nH]4)cc23)c1
How it was run: as §1

Measured: log2 fold change

MRPS9 (UniProt P82933)
inactive: [1] 0.106 | [2] 0.067 | [3] -0.094 | [4] 0.008 | [5] -0.023 | [6] -0.024 | [7] -0.073 | [8] 0.057 | [9] -0.025 | [10] 0.085 | [11] -0.03 | [12] -0.011 | [13] -0.117 | [14] 0.018 | [15] 0.008 | [16] 0.167 | [17] 0.035 | [18] -0.083 | [19] -0.019 | [20] -0.081

MUC1, A0A087WWM1
inactive: [1] 0.001 | [2] -0.138 | [3] 0.004 | [4] -0.12 | [5] 0.053 | [6] -0.033 | [7] 0.075 | [8] -0.006 | [9] -0.011 | [10] 0.295 | [11] 0.038 | [12] 0.124 | [13] -0.095 | [14] 0 | [15] 0.01 | [16] 0.01 | [17] 0.07 | [18] 0.055 | [19] 0.03 | [20] -0.097

MYO1C (UniProt O00159)
inactive: [1] -0.128 | [2] 0.051 | [3] -0.119 | [4] -0.099 | [5] -0.17 | [6] -0.049 | [7] 0.015 | [8] 0.015 | [9] -0.043 | [10] 0.034 | [11] 0 | [12] -0.002 | [13] 0.171 | [14] -0.116 | [15] -0.028 | [16] 0.04 | [17] -0.044 | [18] 0.195 | [19] 0.053 | [20] -0.087

MYDGF (UniProt Q969H8)
inactive: [1] -0.098 | [2] -0.04 | [3] 0.005 | [4] 0.003 | [5] 0.064 | [6] -0.016 | [7] -0.039 | [8] 0.012 | [9] 0.012 | [10] 0.029 | [11] -0.043 | [12] -0.025 | [13] -0.01 | [14] 0.014 | [15] -0.016 | [16] -0.041 | [17] 0.023 | [18] -0.004 | [19] -0.03 | [20] -0.029

MRPL58 (UniProt Q14197)
inactive: [1] 0.129 | [2] 0.021 | [3] -0.058 | [4] 0.152 | [5] 0.005 | [6] -0.034 | [7] -0.086 | [8] 0.002 | [9] 0.077 | [10] 0.038 | [11] -0.045 | [12] 0.037 | [13] 0.059 | [14] 0.054 | [15] 0.001 | [16] -0.013 | [17] -0.026 | [18] 0.011 | [19] 0.017 | [20] -0.049

MTFR1 (UniProt Q15390)
inactive: [1] -0.127 | [2] 0.061 | [3] -0.004 | [4] 0 | [5] -0.157 | [6] 0.081 | [7] 0.133 | [8] 0.017 | [9] -0.069 | [10] -0.003 | [11] -0.027 | [12] -0.033 | [13] -0.116 | [14] -0.039 | [15] 0.016 | [16] 0.131 | [17] 0.065 | [18] 0.061 | [19] -0.005 | [20] 0.024

Quoted at random: 2 records from the list.
MYO1C (UniProt O00159)
inactive: [1] -0.128 | [2] 0.051 | [3] -0.119 | [4] -0.099 | [5] -0.17 | [6] -0.049 | [7] 0.015 | [8] 0.015 | [9] -0.043 | [10] 0.034 | [11] 0 | [12] -0.002 | [13] 0.171 | [14] -0.116 | [15] -0.028 | [16] 0.04 | [17] -0.044 | [18] 0.195 | [19] 0.053 | [20] -0.087

MRPL58 (UniProt Q14197)
inactive: [1] 0.129 | [2] 0.021 | [3] -0.058 | [4] 0.152 | [5] 0.005 | [6] -0.034 | [7] -0.086 | [8] 0.002 | [9] 0.077 | [10] 0.038 | [11] -0.045 | [12] 0.037 | [13] 0.059 | [14] 0.054 | [15] 0.001 | [16] -0.013 | [17] -0.026 | [18] 0.011 | [19] 0.017 | [20] -0.049

The results go on.

MSI1 (UniProt O43347)
inactive: [1] -0.017 | [2] 0.043 | [3] -0.076 | [4] 0.007 | [5] 0.068 | [6] 0.124 | [7] -0.187 | [8] -0.062 | [9] 0.028 | [10] -0.076 | [11] -0.004 | [12] 0.028 | [13] 0.013 | [14] -0.005 | [15] 0.021 | [16] 0.103 | [17] -0.036 | [18] 0.058 | [19] 0.186 | [20] -0.132

MRTO4 (UniProt Q9UKD2)
inactive: [1] 0.255 | [2] -0.033 | [3] -0.043 | [4] 0.041 | [5] 0.052 | [6] -0.012 | [7] -0.157 | [8] -0.186 | [9] 0.085 | [10] -0.197 | [11] 0.031 | [12] 0.329 | [13] 0.245 | [14] 0 | [15] 0.021 | [16] 0.055 | [17] 0.075 | [18] 0.087 | [19] 0.127 | [20] -0.161

MYCBP2 (UniProt O75592)
inactive: [1] -0.388 | [2] -0.359 | [3] -0.037 | [4] 0.047 | [5] -0.311 | [6] 0.282 | [7] 0.109 | [8] -0.093 | [9] -0.106 | [10] -0.176 | [11] -0.31 | [12] 0.023 | [13] 0.194 | [14] -0.227 | [15] -0.147 | [16] -0.069 | [17] -0.058 | [18] 0.17 | [19] 0.124 | [20] 0.069

MYLK (UniProt Q15746)
inactive: [2] -0.063 | [4] 0.147 | [6] 0.136 | [7] -0.107 | [8] -0.128 | [9] 0.047 | [10] 0 | [11] -0.063 | [13] -0.064 | [14] -0.21 | [15] -0.081 | [16] -0.059 | [17] -0.089 | [18] 0.175 | [20] 0.204
active: [1] 0.827 | [3] 0.856 | [5] 0.65

MTMR9 (UniProt Q96QG7)
inactive: [1] -0.134 | [2] 0.011 | [3] 0.098 | [4] -0.049 | [5] -0.028 | [6] 0.053 | [7] 0.05 | [8] 0.016 | [9] -0.08 | [10] -0.013 | [12] -0.114 | [13] -0.076 | [14] 0.024 | [16] 0.013 | [17] -0.023 | [18] 0.019 | [19] -0.007 | [20] -0.034

MRPS12 (UniProt O15235)
inactive: [1] 0.269 | [2] 0.146 | [3] -0.161 | [4] 0.073 | [5] 0.062 | [6] -0.024 | [7] -0.045 | [8] 0.111 | [9] -0.082 | [10] 0.143 | [11] 0.207 | [12] -0.053 | [13] -0.005 | [14] 0.221 | [15] -0.017 | [16] 0.038 | [17] 0.01 | [18] -0.007 | [19] 0.101 | [20] -0.056

MYH3 (UniProt P11055)
inactive: [1] -0.067 | [2] -0.035 | [3] 0.003 | [4] 0.04 | [6] 0.019 | [7] 0.047 | [16] 0.037 | [17] -0.446 | [20] -0.538

MVB12A (UniProt Q96EY5)
inactive: [1] 0.004 | [2] 0.137 | [3] -0.108 | [4] -0.075 | [5] -0.034 | [6] -0.056 | [8] 0.036 | [9] -0.015 | [10] 0.048 | [11] -0.021 | [12] -0.125 | [13] -0.138 | [14] 0.063 | [15] -0.006 | [16] 0.214 | [17] 0.029 | [18] 0.033 | [19] -0.08 | [20] -0.049

MTRF1L (UniProt Q9UGC7)
inactive: [1] -0.022 | [2] -0.027 | [3] -0.063 | [4] -0.093 | [5] 0.114 | [6] 0.004 | [7] 0.045 | [8] 0.035 | [9] 0.019 | [10] 0.034 | [12] 0.029 | [13] -0.074 | [14] 0.108 | [16] 0.046 | [17] -0.026 | [18] 0.089 | [19] -0.037 | [20] -0.167

MYO19 (UniProt Q96H55)
inactive: [1] 0.007 | [2] -0.068 | [3] -0.022 | [4] -0.045 | [5] -0.111 | [6] 0.038 | [7] -0.099 | [8] -0.069 | [9] 0.048 | [12] -0.112 | [14] 0.051 | [16] 0.029 | [19] 0.232

MTX1 (UniProt Q13505)
inactive: [1] -0.04 | [2] -0.039 | [3] 0.061 | [4] -0.013 | [5] -0.034 | [6] -0.023 | [7] 0.082 | [8] -0.043 | [9] 0.026 | [10] 0.006 | [11] -0.092 | [12] 0.032 | [13] 0.03 | [14] 0.041 | [15] -0.01 | [16] -0.031 | [17] -0.021 | [18] 0.009 | [19] -0.072 | [20] -0.005
